Results are given in words; binding and its absence hold for the method and conditions named. Binding seen in cells or lysates may run through a third protein. Binding can be weak; no strength is given. Tags and fused reporters may be left off the sequences shown.
What was measured:
Assay in all cases: split reporter; BiFC with split Venus (VN and VC fusions) in rice protoplasts, PEG-mediated transfection; ER-mCherry as internal control; confocal microscopy
[1] = target: OsDREB1B-VC (BiFC fusion) (rice)
[2] = target: OsDREB1C-VC (BiFC fusion) (rice)
[3] = target: OsDREB1A-VC (BiFC fusion) (rice)

Row | binding [1] | binding [2] | binding [3] | Binder
1 | no binding | no binding | no binding | OsPP2C06-VN (BiFC fusion) (enzyme, UniProt Q0JLP9 1-467) MEDVAVAAALAPAPATAPVFSPAAAGLTLIAAAAADPIAAVVAGAMDGVVTVPPVRTASAVEDDAVAPGRGEEGGEASAVGSPCSVTSDCSSVASADFEGVGLGFFGAAADGGAAMVFEDSAASAATVEAEARVAAGARSVFAVECVPLWGHKSICGRRPEMEDAVVAVSRFFDIPLWMLTGNSVVDGLDPMSFRLPAHFFGVYDGHGGAQVANYCRERLHAALVEELSRIEGSVSGANLGSVEFKKKWEQAFVDCFSRVDEEVGGNASRGEAVAPETVGSTAVVAVICSSHIIVANCGDSRAVLCRGKQPVPLSVDHKPNREDEYARIEAEGGKVIQWNGYRVFGVLAMSRSIGDRYLKPWIIPVPEITIVPRAKDDECLVLASDGLWDVMSNEEVCDVARKRILLWHKKNGTNPASAPRSGDSSDPAAEAAAECLSKLALQKGSKDNISVIVVDLKAHRKFKSKS
2 | binds | binds | binds | OsPP2C09-VN (BiFC fusion) (enzyme, UniProt Q5N9N2 1-414) MAEICCEEAMSPPATATAAVAAAVSASAAAAVSSAIDRRRRRMEMRRIRIASDLELQAGEDGRPGKRQRLARTASGAPRPDEDSASERPSCGRTEEFPRYGVTAVCGRRREMEDAVSIRPDFLPASGKFHFYGVFDGHGCSHVATTCQDRMHEIVAEEHNKGASGEVAPWRDVMEKSFARMDGEVGNRASTRSDDEPACPCEQQTPSRRDHAGSTAVVAVVSPTQVVVANAGDSRAVISRAGVPVALSVDHKPDRPDELERIEAAGGRVIYWDGARVLGVLAMSRAIGDGYLKPYVTSEPEVTVTERTDDDECLILASDGLWDVVTNEMACEVVRACFHNNGPPAPAARPSGVPSSAEAAETENGGAASVKGISKAESSDKACSDAAMLLTKLALARRSADNVSVVVVDLRRGL
3 | binds | binds | binds | OsPP2C30-VN (BiFC fusion) (enzyme, UniProt Q84JI0 1-404) MAEICCEVVAGSSSEGKGPECDTGSRAARRRRMEIRRLRVVAERGAEEETSGKRRRLDGGGGEASTDEEDREVERARYGFTSVCGRRRDMEDSVSACPGFLPGHHFFGVFDGHGCSHVATSCGQRMHEIVVDEAGAAAGSAGLDEEARWRGVMERSFARMDAEAVASSRGSVAPAPTCRCEMQLPKCDHVGSTAVVAVLGPRHVVVANCGDSRAVLCRGGAAIPLSCDHKPDRPDELERIHAAGGRVIFWDGARVFGMLAMSRAIGDSYLKPYVICDPEVRVMERKDGEDEFLILASDGLWDVVSNEVACNVVRACLRSSGRRERNRSSPTSNLSPRQSSSSGDEAPNDGAPSAAAGSESDEESAAEEDKACAEAAVLLTKLALARQTSDNVSVVVVNLRRRKL
